Our source for the crude yield values is patent US8809010B2 (Probiodrug AG, priority 2003, dated 2014).

Ends that are not written are not given here. * marks the point of attachment. NHNH2 = NN*

What all share (conditions): whole synthesis, scale of the general procedure 0.5 mmol, 25 μmol for longer peptides
A short description of series [1]: general procedure: Fmoc solid-phase peptide synthesis; Rink amide MBHA; HMBA-AM; TBTU/base (DIPEA or NMM); HATU/DIPEA for difficult couplings.
Series [2] in a line: general procedure: Fmoc solid-phase peptide synthesis; Rink amide MBHA; 2-chlorotrityl resin; HMBA-AM; TBTU/base (DIPEA or NMM); HATU/DIPEA for difficult couplings.
The nature of series [3]: general procedure: Fmoc solid-phase peptide synthesis; Rink amide MBHA; TBTU/base (DIPEA or NMM); HATU/DIPEA for difficult couplings.

In series [1], E(NHNH2)SPTA-NH2 came in with a crude yield of 76%.

In series [2], “H-Gln(NMe)-Phe-Lys-Ala-Glu-NH2 (FKAE; N-terminal N-methyl Gln; C-terminal amide; printed: Phe-Lys-Ala-Glu-)” came in with a crude yield of 78%.

Consider H-Gln-Lys(Gln)-Arg-Leu-Ala-NH2 (QKRLA), for which, in series [3], the crude yield came to 95%.
